Laboratory results taken from PMC3299563, “Salt Bridges Regulate Both Dimer Formation and Monomeric Flexibility in HdeB and May Have a Role in Periplasmic Chaperone Function” (Journal of Molecular Biology, 2011).
Where a chain is given by its changes, count along the chain named. Names and notes keep the numbering of the source. No constants are given. Whether binding was seen depends on the method and setting. For some of these results: Sequences can lack the tags named with a protein. Blank lines part the entries; values can stand above or below the binder they belong to.

Tests used:
[1] = biological target: HdeB double mutant (W55A, W56A) (E. coli) (UniProt P0AET2); assay: SEC; gel filtration at neutral pH (pH 7); both purified
[2] = biological target: HdeB-His6 WT (E. coli) (UniProt P0AET2); assay: SEC; gel filtration at low pH (pH 2.5 for the wild type); both purified
[3] = biological target: HdeB-His6 WT (E. coli) (UniProt P0AET2); assay: other fluorescence titration; intrinsic tryptophan fluorescence (emission maximum, acrylamide quenching, anisotropy) against pH; 50 μM HdeB, McIlvaine buffer or 10 mM KCl with HCl, 20 °C; acid side of the transition (below around pH 3 for the wild type); both purified
[4] = biological target: HdeB H59N (E. coli) (UniProt P0AET2); assay: as above
[5] = biological target: HdeB E41Q (E. coli) (UniProt P0AET2); assay: condition: only at low pH (apparent pKa ∼ 0.5 pH units higher than that of wild type); 50 μM; other fluorescence titration; intrinsic tryptophan fluorescence (emission maximum, acrylamide quenching, anisotropy) against pH; 50 μM HdeB, McIlvaine buffer or 10 mM KCl with HCl, 20 °C; acid side of the transition (below around pH 3 for the wild type); both purified
[6] = biological target: HdeB D76N (E. coli) (UniProt P0AET2); assay: SEC; gel filtration at low pH (pH 2.5 for the wild type); both purified
[7] = biological target: HdeB D76N (E. coli) (UniProt P0AET2); assay: other fluorescence titration; intrinsic tryptophan fluorescence (emission maximum, acrylamide quenching, anisotropy) against pH; 50 μM HdeB, McIlvaine buffer or 10 mM KCl with HCl, 20 °C; acid side of the transition (below around pH 3 for the wild type); both purified

- binding [1]: no binding
B1: HdeB double mutant (W55A, W56A) (protein, UniProt P0AET2 30-108)
chain: ANESAKDMTCQEFIDLNPKAMTPVAAAMLHEETVYKGGDTVTLNETDLTQIPKVIEYCKKNPQKNLYTFKNQASNDLPN

- binding [2]: no binding (condition: at pH 2.5)
B2: HdeB-His6 WT (natural protein, E. coli, UniProt P0AET2 30-108, looked up)
chain: B1 chain with A26W, A27W
notes: HdeB, E. coli periplasmic acid-stress chaperone; begins at A30; A30 to A102 ordered in the crystal plus six disordered C-terminal residues; residue numbers count on the precursor; Cloned with hdeA (hdeAB genes) in pTrc99A; primers are in the Supplementary Data; also called HdeB WT; wild type; source: E. coli MG1655ΔhdeAB, plasmid pTrcHdeABHis6, 1 mM IPTG, purified (Ni resin, gel filtration); not …
- binding [3]: no binding (condition: below around pH 3)

- binding [4]: no binding (condition: at low pH)
B3: HdeB H59N (natural protein, E. coli, UniProt P0AET2 30-108, looked up)
chain: B1 chain with A26W, A27W, H30N
notes: HdeB, E. coli, with H59N; residue numbers count on the precursor; Probably made from the HdeB-His6 construct; also called H59N mutant

- binding [5]: no binding
B4: HdeB E41Q (natural protein, E. coli, UniProt P0AET2 30-108, looked up)
chain: B1 chain with E12Q, A26W, A27W
notes: HdeB, E. coli, with E41Q; residue numbers count on the precursor; The methods speak of 'purified HdeB-His6 WT and E41Q samples'; probably the same construct and host as the wild type; also called E41Q mutant; source: purified mutant protein

- binding [6]: no binding (condition: at low pH)
- binding [7]: no binding (condition: at low pH)
B5: HdeB D76N (natural protein, E. coli, UniProt P0AET2 30-108, looked up)
chain: B1 chain with A26W, A27W, D47N
notes: HdeB, E. coli, with D76N; residue numbers count on the precursor; Probably made from the HdeB-His6 construct; also called D67N (as printed in two places)
